Experimental data as given in PMC7042714.
These are yes or no findings as the source states them, for the method shown. For part of these data: In cells and extracts the contact can be indirect. Some results given as binding are weak or reduced against the parent protein; the word gives no strength.

Protein sequences, listed by entry. Tags and fused reporters are not part of them.
UniProt Q9BVL2: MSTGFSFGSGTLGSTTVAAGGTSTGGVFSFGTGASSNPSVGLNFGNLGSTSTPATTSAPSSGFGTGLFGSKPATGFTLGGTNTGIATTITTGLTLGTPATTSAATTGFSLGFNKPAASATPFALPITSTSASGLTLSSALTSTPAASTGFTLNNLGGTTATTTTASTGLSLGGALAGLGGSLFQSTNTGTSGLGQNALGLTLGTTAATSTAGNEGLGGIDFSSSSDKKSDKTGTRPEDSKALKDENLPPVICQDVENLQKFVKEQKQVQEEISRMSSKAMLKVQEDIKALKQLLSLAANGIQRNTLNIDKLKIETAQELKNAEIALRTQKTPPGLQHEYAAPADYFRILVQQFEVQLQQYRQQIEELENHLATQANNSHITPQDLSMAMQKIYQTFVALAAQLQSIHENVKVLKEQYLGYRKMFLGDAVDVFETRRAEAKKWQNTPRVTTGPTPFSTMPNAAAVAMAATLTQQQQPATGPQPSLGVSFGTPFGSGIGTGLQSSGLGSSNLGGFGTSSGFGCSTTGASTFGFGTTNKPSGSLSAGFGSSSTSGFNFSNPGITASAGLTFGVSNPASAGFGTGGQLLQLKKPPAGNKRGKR
UniProt Q15554: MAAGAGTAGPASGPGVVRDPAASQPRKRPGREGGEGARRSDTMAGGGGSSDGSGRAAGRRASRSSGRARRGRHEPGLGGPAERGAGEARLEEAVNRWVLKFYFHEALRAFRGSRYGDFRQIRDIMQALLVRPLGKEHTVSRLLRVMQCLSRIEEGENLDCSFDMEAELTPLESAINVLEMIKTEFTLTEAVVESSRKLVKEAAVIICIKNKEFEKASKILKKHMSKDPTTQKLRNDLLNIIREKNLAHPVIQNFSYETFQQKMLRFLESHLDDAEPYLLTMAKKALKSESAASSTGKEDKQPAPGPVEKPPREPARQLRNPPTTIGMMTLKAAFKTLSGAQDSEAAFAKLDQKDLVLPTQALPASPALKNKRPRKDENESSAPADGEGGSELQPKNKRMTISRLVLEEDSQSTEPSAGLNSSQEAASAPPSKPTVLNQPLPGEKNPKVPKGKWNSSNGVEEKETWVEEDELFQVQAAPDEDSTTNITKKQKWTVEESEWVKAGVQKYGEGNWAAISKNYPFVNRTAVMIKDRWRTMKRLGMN

T1: NUP93 (human (endogenous in HeLa)) (UniProt Q8N1F7)
T1 sequence: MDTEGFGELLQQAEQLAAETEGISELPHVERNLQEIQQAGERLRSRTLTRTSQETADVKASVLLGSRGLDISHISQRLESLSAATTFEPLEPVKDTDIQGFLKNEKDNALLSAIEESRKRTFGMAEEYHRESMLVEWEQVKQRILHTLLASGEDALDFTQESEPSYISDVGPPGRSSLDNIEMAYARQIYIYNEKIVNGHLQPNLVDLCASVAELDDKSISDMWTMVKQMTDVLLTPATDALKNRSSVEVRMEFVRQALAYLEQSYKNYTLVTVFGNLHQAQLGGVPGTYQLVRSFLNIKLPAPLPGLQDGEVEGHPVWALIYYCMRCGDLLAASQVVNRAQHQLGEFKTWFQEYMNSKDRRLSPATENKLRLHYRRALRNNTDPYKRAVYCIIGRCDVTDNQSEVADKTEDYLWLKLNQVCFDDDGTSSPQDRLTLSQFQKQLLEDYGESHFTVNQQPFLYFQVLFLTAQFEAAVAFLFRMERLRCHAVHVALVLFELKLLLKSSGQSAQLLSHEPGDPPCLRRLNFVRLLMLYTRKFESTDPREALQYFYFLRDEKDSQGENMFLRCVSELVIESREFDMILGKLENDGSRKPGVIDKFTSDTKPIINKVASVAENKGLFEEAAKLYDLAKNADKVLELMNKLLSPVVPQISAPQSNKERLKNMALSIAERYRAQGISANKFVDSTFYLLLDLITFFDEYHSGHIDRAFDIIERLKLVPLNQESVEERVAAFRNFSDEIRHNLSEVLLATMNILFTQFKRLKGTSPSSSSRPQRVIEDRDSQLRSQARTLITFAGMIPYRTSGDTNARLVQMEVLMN

T2: SEC24B (human (endogenous in HeLa)), O95487
T2 chain: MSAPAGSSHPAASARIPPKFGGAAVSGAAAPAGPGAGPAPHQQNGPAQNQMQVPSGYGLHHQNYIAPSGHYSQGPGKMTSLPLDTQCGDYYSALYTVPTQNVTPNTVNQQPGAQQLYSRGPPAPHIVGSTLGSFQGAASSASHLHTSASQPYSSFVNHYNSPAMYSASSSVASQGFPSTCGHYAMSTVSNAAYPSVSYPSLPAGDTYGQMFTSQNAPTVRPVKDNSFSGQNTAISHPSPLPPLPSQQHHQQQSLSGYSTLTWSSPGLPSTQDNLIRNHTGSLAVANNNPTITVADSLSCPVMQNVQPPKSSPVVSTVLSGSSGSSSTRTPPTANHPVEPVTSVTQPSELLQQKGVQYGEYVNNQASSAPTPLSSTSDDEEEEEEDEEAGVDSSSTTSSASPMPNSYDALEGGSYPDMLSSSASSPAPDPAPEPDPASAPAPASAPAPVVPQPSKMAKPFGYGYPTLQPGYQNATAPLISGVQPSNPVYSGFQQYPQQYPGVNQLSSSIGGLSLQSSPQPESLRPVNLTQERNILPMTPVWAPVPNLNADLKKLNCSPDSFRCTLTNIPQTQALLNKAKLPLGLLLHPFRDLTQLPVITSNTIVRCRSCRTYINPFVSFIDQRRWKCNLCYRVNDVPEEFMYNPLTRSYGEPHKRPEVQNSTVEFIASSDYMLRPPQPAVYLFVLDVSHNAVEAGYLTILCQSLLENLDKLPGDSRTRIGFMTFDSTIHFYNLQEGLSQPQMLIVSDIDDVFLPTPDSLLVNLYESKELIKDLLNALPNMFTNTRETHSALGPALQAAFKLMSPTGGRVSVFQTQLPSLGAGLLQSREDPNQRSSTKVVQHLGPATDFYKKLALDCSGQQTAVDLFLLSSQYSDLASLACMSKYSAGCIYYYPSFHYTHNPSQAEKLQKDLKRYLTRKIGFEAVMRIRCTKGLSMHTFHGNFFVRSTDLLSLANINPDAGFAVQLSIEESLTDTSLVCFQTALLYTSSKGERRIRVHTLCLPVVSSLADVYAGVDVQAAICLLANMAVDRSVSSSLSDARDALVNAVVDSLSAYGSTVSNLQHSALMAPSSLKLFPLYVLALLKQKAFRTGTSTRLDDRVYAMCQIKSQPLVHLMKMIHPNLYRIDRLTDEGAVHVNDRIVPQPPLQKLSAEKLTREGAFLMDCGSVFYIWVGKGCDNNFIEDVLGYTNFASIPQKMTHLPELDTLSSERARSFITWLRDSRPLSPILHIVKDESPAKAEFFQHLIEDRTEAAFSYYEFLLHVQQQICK

B1: NUP155 (protein, UniProt O75694 1-1391)
chain: MPSSLLGAAMPASTSAAALQEALENAGRLIDRQLQEDRMYPDLSELLMVSAPNNPTVSGMSDMDYPLQGPGLLSVPNLPEISSIRRVPLPPELVEQFGHMQCNCMMGVFPPISRAWLTIDSDIFMWNYEDGGDLAYFDGLSETILAVGLVKPKAGIFQPHVRHLLVLATPVDIVILGLSYANLQTGSGVLNDSLSGGMQLLPDPLYSLPTDNTYLLTITSTDNGRIFLAGKDGCLYEVAYQAEAGWFSQRCRKINHSKSSLSFLVPSLLQFTFSEDDPILQIAIDNSRNILYTRSEKGVIQVYDLGQDGQGMSRVASVSQNAIVSAAGNIARTIDRSVFKPIVQIAVIENSESLDCQLLAVTHAGVRLYFSTCPFRQPLARPNTLTLVHVRLPPGFSASSTVEKPSKVHRALYSKGILLMAASENEDNDILWCVNHDTFPFQKPMMETQMTAGVDGHSWALSAIDELKVDKIITPLNKDHIPITDSPVVVQQHMLPPKKFVLLSAQGSLMFHKLRPVDQLRHLLVSNVGGDGEEIERFFKLHQEDQACATCLILACSTAACDREVSAWATRAFFRYGGEAQMRFPTTLPPPSNVGPILGSPVYSSSPVPSGSPYPNPSFLGTPSHGIQPPAMSTPVCALGNPATQATNMSCVTGPEIVYSGKHNGICIYFSRIMGNIWDASLVVERIFKSGNREITAIESSVPCQLLESVLQELKGLQEFLDRNSQFAGGPLGNPNTTAKVQQRLIGFMRPENGNPQQMQQELQRKFHEAQLSEKISLQAIQQLVRKSYQALALWKLLCEHQFTIIVAELQKELQEQLKITTFKDLVIRDKELTGALIASLINCYIRDNAAVDGISLHLQDICPLLYSTDDAICSKANELLQRSRQVQNKTEKERMLRESLKEYQKISNQVDLSNVCAQYRQVRFYEGVVELSLTAAEKKDPQGLGLHFYKHGEPEEDIVGLQAFQERLNSYKCITDTLQELVNQSKAAPQSPSVPKKPGPPVLSSDPNMLSNEEAGHHFEQMLKLSQRSKDELFSIALYNWLIQVDLADKLLQVASPFLEPHLVRMAKVDQNRVRYMDLLWRYYEKNRSFSNAARVLSRLADMHSTEISLQQRLEYIARAILSAKSSTAISSIAADGEFLHELEEKMEVARIQLQIQETLQRQYSHHSSVQDAVSQLDSELMDITKLYGEFADPFKLAECKLAIIHCAGYSDPILVQTLWQDIIEKELSDSVTLSSSDRMHALSLKIVLLGKIYAGTPRFFPLDFIVQFLEQQVCTLNWDVGFVIQTMNEIGVPLPRLLEVYDQLFKSRDPFWNRMKKPLHLLDCIHVLLIRYVENPSQVLNCERRRFTNLCLDAVCGYLVELQSMSSSVAVQAITGNFKSLQAKLERLH
B2: NUP54 (protein, UniProt Q7Z3B4 1-507)
chain: MAFNFGAPSGTSGTAAATAAPAGGFGGFGTTSTTAGSAFSFSAPTNTGTTGLFGGTQNKGFGFGTGFGTTTGTSTGLGTGLGTGLGFGGFNTQQQQQTTLGGLFSQPTQAPTQSNQLINTASALSAPTLLGDERDAILAKWNQLQAFWGTGKGYFNNNIPPVEFTQENPFCRFKAVGYSCMPSNKDEDGLVVLVFNKKETEIRSQQQQLVESLHKVLGGNQTLTVNVEGTKTLPDDQTEVVIYVVERSPNGTSRRVPATTLYAHFEQANIKTQLQQLGVTLSMTRTELSPAQIKQLLQNPPAGVDPIIWEQAKVDNPDSEKLIPVPMVGFKELLRRLKVQDQMTKQHQTRLDIISEDISELQKNQTTSVAKIAQYKRKLMDLSHRTLQVLIKQEIQRKSGYAIQADEEQLRVQLDTIQGELNAPTQFKGRLNELMSQIRMQNHFGAVRSEERYYIDADLLREIKQHLKQQQEGLSHLISIIKDDLEDIKLVEHGLNETIHIRGGVFS
B3: NUP93 (protein, UniProt Q8N1F7 1-819)
chain: T1 sequence
B4: RAP1 (protein, UniProt Q9NYB0 1-399)
chain: MAEAMDLGKDPNGPTHSSTLFVRDDGSSMSFYVRPSPAKRRLSTLILHGGGTVCRVQEPGAVLLAQPGEALAEASGDFISTQYILDCVERNERLELEAYRLGPASAADTGSEAKPGALAEGAAEPEPQRHAGRIAFTDADDVAILTYVKENARSPSSVTGNALWKAMEKSSLTQHSWQSLKDRYLKHLRGQEHKYLLGDAPVSPSSQKLKRKAEEDPEAADSGEPQNKRTPDLPEEEYVKEEIQENEEAVKKMLVEATREFEEVVVDESPPDFEIHITMCDDDPPTPEEDSETQPDEEEEEEEEKVSQPEVGAAIKIIRQLMEKFNLDLSTVTQAFLKNSGELEATSAFLASGQRADGYPIWSRQDDIDLQKDDEDTREALVKKFGAQNVARRIEFRKK
B5: SEC13, P55735 1-322 (protein)
chain: MVSVINTVDTSHEDMIHDAQMDYYGTRLATCSSDRSVKIFDVRNGGQILIADLRGHEGPVWQVAWAHPMYGNILASCSYDRKVIIWREENGTWEKSHEHAGHDSSVNSVCWAPHDYGLILACGSSDGAISLLTYTGEGQWEVKKINNAHTIGCNAVSWAPAVVPGSLIDHPSGQKPNYIKRFASGGCDNLIKLWKEEEDGQWKEEQKLEAHSDWVRDVAWAPSIGLPTSTIASCSQDGRVFIWTCDDASSNTWSPKLLHKFNDVVWHVSWSITANILAVSGGDNKVTLWKESVDGQWVCISDVNKGQGSVSASVTEGQQNEQ

Assays:
[1] = biological target: T1, NUP93 (human (endogenous in HeLa)); assay: SEC; SEC-SWATH-MS: native extract (0.5% NP-40, freeze-thaw) of HeLa CCL2 cells synchronized in interphase (double thymidine block) or mitosis (thymidine, nocodazole, shake-off); SRT-C-SEC 500 column, 50 mM HEPES pH 7.5, 150 mM NaCl, 0-4°C; 65 fractions profiled by SWATH-MS, triplicates; association inferred from co-elution
[2] = biological target: HA-Strep-tagged NUP58 (UniProt Q9BVL2); assay: pull-down; HA-Strep-NUP58 captured on StrepTactin Sepharose from lysate of HeLa Flp-In T-REx cells synchronized in interphase or mitosis; 25 mM Tris-HCl pH 7.6, 125 mM NaCl, 2 mM MgCl2, 1 mM DTT, 0.5% NP-40, 4°C; biotin elution; immunoblotting; HA-Strep-GFP as control bait
[3] = biological target: TRF2 (human (endogenous in HeLa)) (UniProt Q15554); assay: SEC; SEC-SWATH-MS: native extract (0.5% NP-40, freeze-thaw) of HeLa CCL2 cells synchronized in interphase (double thymidine block) or mitosis (thymidine, nocodazole, shake-off); SRT-C-SEC 500 column, 50 mM HEPES pH 7.5, 150 mM NaCl, 0-4°C; 65 fractions profiled by SWATH-MS, triplicates; association inferred from co-elution
[4] = biological target: T2, SEC24B (human (endogenous in HeLa)), …; assay: as above; details: remark: other sources report otherwise

| Binder | binding [1] | binding [2] | further results |
| --- | --- | --- | --- |
| B1 | binds | – | – |
| B2 | binds | binds | – |
| B3 | – | binds | – |
| B4 | – | – | binding [3]: binds |
| B5 | – | – | binding [4]: no binding |
